Earlier results as cited in patent US9592197B2 (SOVEREIGN PHARMACEUTICALS, LLC, priority 2004, dated 2017).
At least one structure is not confirmed: it was looked up by name or label, or the drawing left a doubt.

Settings: per single dose

In the case of `COc1ccc2c3c1O[C@H]1[C@@H](O)C=C[C@H]4[C@@H](C2)N(C)CC[C@@]341` [Codeine phosphate], the duration of relief is given as 2.9 ± 0.7 h.
